Test results reported in PubChem BioAssay (NCATS).
This list was built around the results that the source calls inconclusive (neither active nor inactive); the mix of calls is not that of the screen. For part of these data: Potencies beside an inconclusive call are fits to weak or partial responses and may not hold up. Calls of active or inactive are those of the source. The call rests on the fitted dose curve; in most records, active means well fitted curve in the direction sought with a large enough effect; inconclusive means small, poorly fitted or top-dose-only effect, or another doubt; inactive means no such curve, though single readings can be large; an effect the other way counts as inactive or inconclusive.

Columns and labels:
[1] = Quantitative High-Throughput drug screen in 47 multiple myeloma cell lines against the NCATS MIPE library collection: KMS20_JCRB cell viability assay (AID 1918973); settings: CellTiter-Glo ATP, 48 h; viability (% of DMSO): at 45.8 µM (top of the series); further: nearly all actives have a fitted effect of over 45% in size
How it was run: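 Myeloma cells (500 per well) were exposed to MIPE 4.0 compounds by pin transfer and incubated 48 hours at 37C, 5% CO2. Viability was read as ATP by CellTiter-Glo luminescence, normalised to DMSO (100%) and media-only (0%) wells.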

[2] = Quantitative High-Throughput drug screen in 47 multiple myeloma cell lines against the NCATS MIPE library collection: KMS26_JCRB cell viability assay (AID 1918975); settings: KMS26 myeloma cells viability, CellTiter-Glo ATP, 48 h; viability (% of DMSO): at 45.8 µM (top of the series); further: nearly all actives have a fitted effect of over 45% in size
How it was run: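 Myeloma cell lines, 500 cells per well, exposed to MIPE 4.0 library compounds for 48 h at 37C, 5% CO2. Viability from ATP by CellTiter-Glo luminescence; normalised to DMSO (100%) and media-only (0%) wells.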

[3] = Quantitative High-Throughput drug screen in 47 multiple myeloma cell lines against the NCATS MIPE library collection: MMM1_PLB cell viability assay (AID 1918976); further: nearly all actives have a fitted effect of over 35% in size
How it was run: (§1)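 ATP-based luminescence (CellTiter-Glo, 5 min RT incubation) quantified surviving cells following two days' treatment with MIPE 4.0 agents at 37 °C, 5% CO2.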

[4] = Quantitative High-Throughput drug screen in 47 multiple myeloma cell lines against the NCATS MIPE library collection: MOLP8_DSMZ cell viability assay (AID 1918977); settings: MOLP8 myeloma viability, CellTiter-Glo ATP luminescence, 48 h; viability (% of control): at 45.8 µM (top of the series); further: nearly all actives have a fitted effect of over 45% in size
How it was run: as §1

[5] = Quantitative High-Throughput drug screen in 47 multiple myeloma cell lines against the NCATS MIPE library collection: MM1R_ATCC cell viability assay (AID 1918981); further: nearly all actives have a fitted effect of over 35% in size
How it was run: as §1

[6] = Quantitative High-Throughput drug screen in 47 multiple myeloma cell lines against the NCATS MIPE library collection: L363_DSMZ cell viability assay (AID 1918984); settings: L363 myeloma viability, CellTiter-Glo ATP luminescence, 48 h; viability (% of control): at 45.8 µM (top of the series); further: nearly all actives have a fitted effect of over 40% in size
How it was run: as §1

[7] = Quantitative High-Throughput drug screen in 47 multiple myeloma cell lines against the NCATS MIPE library collection: KMS34_JCRB cell viability assay (AID 1918985); settings: KMS34 myeloma viability, CellTiter-Glo ATP luminescence, 48 h; viability, percent of control: at 45.8 µM (top of the series); further: nearly all actives have a fitted effect of over 40% in size
How it was run: as §1

[8] = Quantitative High-Throughput drug screen in 47 multiple myeloma cell lines against the NCATS MIPE library collection: OCIMY7_PLB cell viability assay (AID 1918987); settings: OCI-MY7 myeloma viability, CellTiter-Glo ATP, 48 h; viability (% of DMSO): at 45.8 µM (top of the series); further: nearly all actives have a fitted effect of over 65% in size
How it was run: as §1

[9] = Quantitative High-Throughput drug screen in 47 multiple myeloma cell lines against the NCATS MIPE library collection: OPM1_PLB cell viability assay (AID 1918989); further: nearly all actives have a fitted effect of over 40% in size
How it was run: as §1

[10] = Quantitative High-Throughput drug screen in 47 multiple myeloma cell lines against the NCATS MIPE library collection: SKMM1_PLB cell viability assay (AID 1919863); settings: SKMM1 myeloma viability, CellTiter-Glo ATP, 48 h; viability: active compounds read low; further: nearly all actives have a fitted effect of over 35% in size
How it was run: as §1

[11] = Quantitative High-Throughput drug screen in 47 multiple myeloma cell lines against the NCATS MIPE library collection: XG1_PLB cell viability assay (AID 1919866); settings: CellTiter-Glo ATP, 48 h; viability: at 45.8 µM (top of the series); further: nearly all actives have a fitted effect of over 35% in size
How it was run: as §1

[12] = Quantitative High-Throughput drug screen in 47 multiple myeloma cell lines against the NCATS MIPE library collection: NCIH929_DSMZ cell viability assay (AID 1918978); further: nearly all actives have a fitted effect of over 35% in size
How it was run: as §1

[13] = Quantitative High-Throughput drug screen in 47 multiple myeloma cell lines against the NCATS MIPE library collection: OCIMY1_PLB cell viability assay (AID 1918979); settings: OCI-MY1 myeloma viability, CellTiter-Glo ATP, 48 h; viability: at 45.8 µM (top of the series) unless noted; further: nearly all actives have a fitted effect of over 35% in size
How it was run: as §1

[14] = Quantitative High-Throughput drug screen in 47 multiple myeloma cell lines against the NCATS MIPE library collection: LP1_DSMZ cell viability assay (AID 1918982); settings: LP1 myeloma viability, CellTiter-Glo ATP luminescence, 48 h; viability (% of control): at 45.8 µM (top of the series); further: nearly all actives have a fitted effect of over 35% in size
How it was run: as §1

[15] = Quantitative High-Throughput drug screen in 47 multiple myeloma cell lines against the NCATS MIPE library collection: KMS28PE_JCRB cell viability assay (AID 1918983); further: nearly all actives have a fitted effect of over 35% in size
How it was run: as §1

[16] = Quantitative High-Throughput drug screen in 47 multiple myeloma cell lines against the NCATS MIPE library collection: OCIMY5_PLB cell viability assay (AID 1918988); settings: OCI-MY5 myeloma viability, ATP luminescence, 48 h; viability, % of control: at 45.8 µM (top of the series); further: nearly all actives have a fitted effect of over 65% in size;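 on viability, % of control: 100% = DMSO-treated wells and 0% = wells with media alone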
How it was run: as §1

[17] = Quantitative High-Throughput drug screen in 47 multiple myeloma cell lines against the NCATS MIPE library collection: U266_ATCC cell viability assay (AID 1919864); settings: U266 myeloma viability, CellTiter-Glo ATP luminescence, 48 h; viability (% of DMSO control): at 45.8 µM (top of the series); further: nearly all actives have a fitted effect of over 35% in size
How it was run: as §1

[18] = Quantitative High-Throughput drug screen in 47 multiple myeloma cell lines against the NCATS MIPE library collection: MM1S_ATCC cell viability assay (AID 1918980); further: nearly all actives have a fitted effect of over 45% in size
How it was run: as §1

[19] = Quantitative High-Throughput drug screen in 47 multiple myeloma cell lines against the NCATS MIPE library collection: XG6_PLB cell viability assay (AID 1919865); settings: XG6 myeloma viability, CellTiter-Glo ATP luminescence, 48 h; viability (% of control): at 45.8 µM (top of the series); further: nearly all actives have a fitted effect of over 40% in size
How it was run: as §1
Potency means the concentration at half of the fitted maximal effect.

Clc1cccc(Cl)c1NC1=NCCN1
inactive: Potency [1] | Potency [4] | Potency [6] | Potency [7] | Potency [9] | Potency [11]
inconclusive: Potency [2] 0.0935 µM [rising, full curve, poor fit] | Potency [3] 0.0074 µM [rising, full curve, poor fit] | Potency [5] 18.7 µM [cytotoxic, partial curve] | Potency [8] 0.001 µM | Potency [10] 0.105 µM [rising, full curve, poor fit]

CCCCN(CCCC)CC(O)c1cc(Cl)cc2c1-c1ccc(Cl)cc1C2=Cc1ccc(Cl)cc1 (stereo unspecified)
inconclusive: Potency [2] 37.2 µM [cytotoxic, single point] | Potency [4] 29.6 µM [cytotoxic, single point] | Potency [13] 33.2 µM [cytotoxic, single point] | Potency [5] 29.6 µM [cytotoxic, single point] | Potency [14] 29.6 µM [cytotoxic, single point] | Potency [15] 29.6 µM [cytotoxic, single point] | Potency [7] 23.5 µM [cytotoxic, single point]
inactive: Potency [6]
active: Potency [1] 11.8 µM | Potency [3] 23.5 µM | Potency [12] 26.4 µM | Potency [16] 10.5 µM

OC[C@H]1O[C@@H](OCCc2ccc(O)cc2)[C@H](O)[C@@H](O)[C@H]1O
active: Potency [9] 29.6 µM | Potency [17] 20.9 µM
inconclusive: Potency [1] 4.69 µM [cytotoxic, partial curve, poor fit] | Potency [2] 5.9 µM [cytotoxic, partial curve, poor fit] | Potency [3] 4.69 µM [cytotoxic, partial curve, poor fit] | Potency [12] 20.9 µM [cytotoxic, single point] | Potency [15] 0.235 µM [cytotoxic, partial curve, poor fit] | Potency [7] 0.001 µM | Potency [8] 37.2 µM [cytotoxic, partial curve, poor fit] | Potency [16] 3.32 µM [cytotoxic, full curve, poor fit] | Potency [10] 0.526 µM [cytotoxic, full curve, poor fit] | Potency [11] 37.2 µM [cytotoxic, single point]
inactive: Potency [4] | Potency [6]

CN(C)c1ccccc1CN1CCCN(Cc2ccccc2N(C)C)C1c1ccncc1
inconclusive: Potency [1] 9.35 µM [cytotoxic, partial curve, poor fit] | Potency [2] 37.2 µM [cytotoxic, single point] | Potency [13] 26.4 µM [cytotoxic, single point] | Potency [18] 16.6 µM [cytotoxic, partial curve, poor fit] | Potency [14] 16.6 µM [cytotoxic, partial curve] | Potency [6] 37.2 µM [cytotoxic, single point] | Potency [7] 20.9 µM [cytotoxic, partial curve] | Potency [8] 1.18 µM [cytotoxic, full curve, poor fit] | Potency [11] 13.2 µM [cytotoxic, partial curve]
active: Potency [3] 16.6 µM | Potency [4] 18.7 µM | Potency [17] 14.8 µM

C[C@]12CCC(=O)C=C1CC[C@@H]1[C@H]2[C@@H](O)C[C@@]2(C)[C@H]1CC[C@]2(O)C(=O)CO
active: Potency [19] 18.7 µM
inactive: Potency [4] | Potency [13] | Potency [14] | Potency [6] | Potency [16] | Potency [9] | viability [10] 138%
inconclusive: Potency [1] 37.2 µM [cytotoxic, single point] | Potency [2] 0.001 µM [cytotoxic] | Potency [3] 0.0083 µM [rising, full curve] | Potency [12] 16.6 µM [cytotoxic, partial curve] | Potency [18] 20.9 µM [cytotoxic, partial curve, poor fit] | Potency [7] 0.0012 µM [cytotoxic, full curve, poor fit] | Potency [8] 33.2 µM [cytotoxic, partial curve, poor fit] | Potency [17] 0.0833 µM [rising, full curve, poor fit] | Potency [11] 18.7 µM [cytotoxic, partial curve]

CC=CC1=C(C(=O)O)N2C(=O)[C@H](NC(=O)[C@H](N)c3ccc(O)cc3)[C@@H]2SC1
inconclusive: Potency [2] 0.0296 µM [cytotoxic, full curve, poor fit] | Potency [3] 0.0093 µM [rising, full curve] | Potency [12] 23.5 µM [cytotoxic, single point] | Potency [13] 0.0105 µM [rising, full curve, poor fit] | Potency [16] 0.132 µM [rising, full curve, poor fit] | Potency [9] 29.6 µM [cytotoxic, single point] | Potency [17] 29.6 µM [cytotoxic, single point]
inactive: Potency [4] | Potency [15] | Potency [6] | viability [10] 117% | Potency [19] | Potency [11]
active: Potency [1] 26.4 µM | Potency [18] 14.8 µM
